Measured values as given in patent US20050282786A1, “Method for reducing c-rective protein levels with non-antibacterial tetracycline formulations” (priority 2002, published 2005).
For at least one compound, name, drawing or mass did not settle the structure.

Assay: Same six-month study: clinical follow-up, composite endpoint of plaque rupture events
Assay type: in vivo, human
Conditions: six months clinical follow-up, compared to placebo treated patients

C[C@H]1c2cccc(O)c2C(=O)C2=C(O)[C@]3(O)C(=O)C(C(N)=O)=C(O)[C@@H](N(C)C)[C@@H]3[C@@H](O)[C@@H]21 [LDD, doxycycline]
composite endpoint of cardiovascular death, myocardial infarction or troponin-positive unstable angina: no difference
